These results are taken from paper PMC9119314 (Frontiers in Pharmacology, 2022).

One data set has as its system DNA. On the set-up: method as in Onyeibor et al., 2005. The note with it: values below 5°C indicate non-specific binding to DNA; ref Onyeibor et al., 2005; cited from earlier work.
Another data set concerns P. falciparum K1. Nature of the data set: In vitro antiplasmodial activity, P. falciparum K1 (lactate dehydrogenase assay). The format is cell-based, Plasmodium falciparum. Conditions: relative to 1. As for the experimental part:
P. falciparum (K1 clone) was maintained in human erythrocytes prepared from the donated blood samples (blood groups unknown, Ethical Tissue, University of Bradford), suspended in the RPMI 1640 medium as previously described ([Wright et al., 2001]), except that serum was replaced with Albumax II, [5% (^w/v)]. […] Twofold serial dilutions were made in 96-well microtiter plates in duplicate, and infected erythrocytes were added to give a final volume of 100 µL with 2.5% hematocrit and 1% parasitemia. Chloroquine diphosphate was used as a positive control, and uninfected and infected erythrocytes without compounds were included in each test. The plates were placed into a modular incubator; gassed with 93% nitrogen, 3% oxygen, and 4% carbon dioxide; and incubated at 37°C for 48 h. The parasite growth was assessed by measuring lactate dehydrogenase activity as described by [Makler et al. (1993)]. The reagent used contained the following in each mL: acetylpyridine adenine dinucleotide (APAD), 0.74 mg; lithium lactate, 19.2 mg; diaphorase, 0.1 mg; Triton X-100, 2 μL; nitroblue tetrazolium, 1 mg; and phenazine ethosulphate, 0.5 mg. Fifty microliter of this reagent was added to each well and mixed; plates were incubated for 15 min at 37°C. The optical densities were read at 550 nm using an Azure 96-well microplate reader (Azure Biosystems Inc.), and % inhibition of growth was calculated by comparison with the control values. IC50 values were determined using linear regression analysis (Microsoft Excel). A minimum of three separate determinations was carried out for each compound.

Some compounds share one range, which may span the group rather than tell each member.

`Cn1c2c3ccccc3nc-2cc2ccccc21` [Compound 1, cryptolepine]: in the data set on DNA, the “ΔTm (DNA thermodenaturation)” value is 9 °C.

For the molecule `C[n+]1c2ccccc2cc2[n-]c3ccc(Br)cc3c21` [Compound 3, 7-Bromocryptolepine], in the data set with P. falciparum K1, the “Fold more potent than 1 against P. falciparum K1” value is 1.8-3 fold.

As to `C[n+]1c2ccccc2cc2[n-]c3ccc(I)cc3c21` [Compound 5, 7-iodocryptolepine], in the data set on P. falciparum K1, the “Fold more potent than 1 against P. falciparum K1” value is 1.8-3 fold.

`C[n+]1c2ccccc2cc2[n-]c3c(I)cc(I)cc3c21` [Compound 6, 7,9-diiodocryptolepine]: in the data set on P. falciparum K1, the “Fold more potent than 1 against P. falciparum K1” value is 1.8-3 fold.
